This note sets out measurements from paper PMC11611742.

Protein sequences, listed by entry. Tags and fused reporters are not part of them.
UniProt P35222: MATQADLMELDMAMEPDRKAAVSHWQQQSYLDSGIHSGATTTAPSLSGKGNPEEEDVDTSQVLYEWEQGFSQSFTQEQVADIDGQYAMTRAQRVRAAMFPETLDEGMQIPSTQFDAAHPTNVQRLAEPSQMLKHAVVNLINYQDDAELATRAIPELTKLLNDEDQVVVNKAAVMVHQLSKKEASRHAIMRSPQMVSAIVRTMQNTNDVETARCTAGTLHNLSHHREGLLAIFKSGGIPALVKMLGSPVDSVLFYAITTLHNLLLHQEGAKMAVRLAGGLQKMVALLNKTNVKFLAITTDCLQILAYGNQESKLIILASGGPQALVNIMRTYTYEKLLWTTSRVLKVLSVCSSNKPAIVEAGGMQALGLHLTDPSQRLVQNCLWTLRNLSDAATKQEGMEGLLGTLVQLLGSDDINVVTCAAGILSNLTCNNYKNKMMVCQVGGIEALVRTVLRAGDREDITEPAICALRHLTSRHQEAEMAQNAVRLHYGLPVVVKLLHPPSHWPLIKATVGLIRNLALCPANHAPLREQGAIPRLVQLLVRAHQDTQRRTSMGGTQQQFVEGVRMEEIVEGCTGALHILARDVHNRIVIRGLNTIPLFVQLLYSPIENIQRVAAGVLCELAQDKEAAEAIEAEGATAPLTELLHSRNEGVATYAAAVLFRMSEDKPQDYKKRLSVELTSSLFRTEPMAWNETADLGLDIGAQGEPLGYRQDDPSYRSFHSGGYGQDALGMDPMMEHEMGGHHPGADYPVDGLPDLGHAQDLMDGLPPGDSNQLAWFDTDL

These are yes or no findings as the source states them, for the method shown. Some binding calls cover weakened binding; strength is not graded here.

The test addresses T1, USP10 peptide, residues 7-21.
T1 sequence (peptide): QYIFGDFSPDEFNQF
Put plainly: peptide or protein array; µSPOT: 15-mer peptides (overlapping 12 or 11 amino acids) of disordered regions on slides, incubated with recombinant purified β-Catenin; immunostaining with chemiluminescent readout; both purified.

Regarding “recombinant β-Catenin (from UniProt P35222 1-781)”, the binding result is on record as “binds”.
